# In the supplement of paper PMC10849652:
# Amino acid sequences for entries named in this document (tags omitted). A change or cut given only in a name is not applied to a line headed by its entry.
# UniProt Q00059: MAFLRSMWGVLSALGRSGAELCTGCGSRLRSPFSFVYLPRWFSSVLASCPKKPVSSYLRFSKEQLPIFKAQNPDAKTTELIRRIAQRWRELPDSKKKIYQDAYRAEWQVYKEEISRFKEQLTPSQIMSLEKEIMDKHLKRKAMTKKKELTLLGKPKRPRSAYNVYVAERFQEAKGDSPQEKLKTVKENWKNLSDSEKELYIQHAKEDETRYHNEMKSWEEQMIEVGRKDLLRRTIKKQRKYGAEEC
# UniProt Q96CG3: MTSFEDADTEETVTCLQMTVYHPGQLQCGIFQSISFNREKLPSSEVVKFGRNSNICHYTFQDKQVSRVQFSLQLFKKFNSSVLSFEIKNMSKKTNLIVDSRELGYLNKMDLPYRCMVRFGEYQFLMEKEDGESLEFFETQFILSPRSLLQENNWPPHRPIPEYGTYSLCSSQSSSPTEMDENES
# UniProt Q9UBB9: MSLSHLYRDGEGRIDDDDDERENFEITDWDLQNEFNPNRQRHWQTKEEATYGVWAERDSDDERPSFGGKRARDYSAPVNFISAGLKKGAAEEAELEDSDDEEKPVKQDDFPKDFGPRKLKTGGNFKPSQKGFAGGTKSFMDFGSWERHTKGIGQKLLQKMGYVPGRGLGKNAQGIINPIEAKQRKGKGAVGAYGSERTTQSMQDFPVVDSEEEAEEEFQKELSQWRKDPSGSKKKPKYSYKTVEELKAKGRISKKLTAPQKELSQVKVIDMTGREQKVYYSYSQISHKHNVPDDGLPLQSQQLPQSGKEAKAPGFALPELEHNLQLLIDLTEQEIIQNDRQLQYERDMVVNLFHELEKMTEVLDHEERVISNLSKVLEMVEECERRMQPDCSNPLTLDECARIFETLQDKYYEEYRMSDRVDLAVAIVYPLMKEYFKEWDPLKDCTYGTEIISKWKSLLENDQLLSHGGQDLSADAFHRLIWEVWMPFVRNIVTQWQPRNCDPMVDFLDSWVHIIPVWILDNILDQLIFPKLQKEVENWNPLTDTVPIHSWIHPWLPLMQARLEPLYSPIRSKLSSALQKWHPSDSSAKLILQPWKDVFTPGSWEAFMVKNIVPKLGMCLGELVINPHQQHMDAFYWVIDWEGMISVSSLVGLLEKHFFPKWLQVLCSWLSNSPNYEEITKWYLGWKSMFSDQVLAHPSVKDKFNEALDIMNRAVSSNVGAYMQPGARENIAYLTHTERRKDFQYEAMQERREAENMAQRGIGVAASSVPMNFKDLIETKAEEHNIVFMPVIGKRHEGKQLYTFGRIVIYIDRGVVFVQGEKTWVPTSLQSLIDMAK
# UniProt O95455: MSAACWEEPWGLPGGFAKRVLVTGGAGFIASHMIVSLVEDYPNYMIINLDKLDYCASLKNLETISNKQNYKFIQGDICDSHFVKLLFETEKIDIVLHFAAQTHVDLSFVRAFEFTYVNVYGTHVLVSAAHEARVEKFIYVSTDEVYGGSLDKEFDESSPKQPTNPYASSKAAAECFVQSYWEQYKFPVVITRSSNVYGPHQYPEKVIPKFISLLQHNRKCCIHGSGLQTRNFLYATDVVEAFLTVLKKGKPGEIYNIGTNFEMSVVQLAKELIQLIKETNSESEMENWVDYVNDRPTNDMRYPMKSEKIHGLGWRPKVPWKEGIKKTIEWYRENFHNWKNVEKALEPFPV
# UniProt Q8WUY1: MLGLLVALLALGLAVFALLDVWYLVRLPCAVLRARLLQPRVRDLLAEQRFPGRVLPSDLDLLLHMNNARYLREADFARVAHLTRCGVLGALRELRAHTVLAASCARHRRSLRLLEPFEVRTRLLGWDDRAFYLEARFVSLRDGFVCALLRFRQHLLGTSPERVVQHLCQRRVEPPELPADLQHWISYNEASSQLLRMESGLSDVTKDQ
# UniProt Q15170: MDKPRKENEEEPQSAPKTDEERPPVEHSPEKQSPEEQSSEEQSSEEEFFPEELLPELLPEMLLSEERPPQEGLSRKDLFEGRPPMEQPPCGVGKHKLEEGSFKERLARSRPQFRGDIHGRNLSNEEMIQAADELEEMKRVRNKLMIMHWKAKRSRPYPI
# UniProt Q12800: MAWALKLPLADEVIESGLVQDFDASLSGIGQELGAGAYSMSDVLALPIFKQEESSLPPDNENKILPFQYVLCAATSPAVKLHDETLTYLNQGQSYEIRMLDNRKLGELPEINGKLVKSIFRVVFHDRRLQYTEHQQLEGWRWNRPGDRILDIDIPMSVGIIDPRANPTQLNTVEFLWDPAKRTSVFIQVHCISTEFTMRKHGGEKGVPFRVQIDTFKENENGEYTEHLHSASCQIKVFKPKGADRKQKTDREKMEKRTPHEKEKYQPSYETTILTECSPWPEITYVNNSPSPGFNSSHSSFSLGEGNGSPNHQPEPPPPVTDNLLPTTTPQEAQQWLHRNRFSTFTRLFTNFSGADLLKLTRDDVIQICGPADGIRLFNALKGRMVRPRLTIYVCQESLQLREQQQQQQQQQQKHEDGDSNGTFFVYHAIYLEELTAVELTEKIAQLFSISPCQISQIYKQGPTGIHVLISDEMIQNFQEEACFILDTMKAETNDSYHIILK
# UniProt Q9UGU0: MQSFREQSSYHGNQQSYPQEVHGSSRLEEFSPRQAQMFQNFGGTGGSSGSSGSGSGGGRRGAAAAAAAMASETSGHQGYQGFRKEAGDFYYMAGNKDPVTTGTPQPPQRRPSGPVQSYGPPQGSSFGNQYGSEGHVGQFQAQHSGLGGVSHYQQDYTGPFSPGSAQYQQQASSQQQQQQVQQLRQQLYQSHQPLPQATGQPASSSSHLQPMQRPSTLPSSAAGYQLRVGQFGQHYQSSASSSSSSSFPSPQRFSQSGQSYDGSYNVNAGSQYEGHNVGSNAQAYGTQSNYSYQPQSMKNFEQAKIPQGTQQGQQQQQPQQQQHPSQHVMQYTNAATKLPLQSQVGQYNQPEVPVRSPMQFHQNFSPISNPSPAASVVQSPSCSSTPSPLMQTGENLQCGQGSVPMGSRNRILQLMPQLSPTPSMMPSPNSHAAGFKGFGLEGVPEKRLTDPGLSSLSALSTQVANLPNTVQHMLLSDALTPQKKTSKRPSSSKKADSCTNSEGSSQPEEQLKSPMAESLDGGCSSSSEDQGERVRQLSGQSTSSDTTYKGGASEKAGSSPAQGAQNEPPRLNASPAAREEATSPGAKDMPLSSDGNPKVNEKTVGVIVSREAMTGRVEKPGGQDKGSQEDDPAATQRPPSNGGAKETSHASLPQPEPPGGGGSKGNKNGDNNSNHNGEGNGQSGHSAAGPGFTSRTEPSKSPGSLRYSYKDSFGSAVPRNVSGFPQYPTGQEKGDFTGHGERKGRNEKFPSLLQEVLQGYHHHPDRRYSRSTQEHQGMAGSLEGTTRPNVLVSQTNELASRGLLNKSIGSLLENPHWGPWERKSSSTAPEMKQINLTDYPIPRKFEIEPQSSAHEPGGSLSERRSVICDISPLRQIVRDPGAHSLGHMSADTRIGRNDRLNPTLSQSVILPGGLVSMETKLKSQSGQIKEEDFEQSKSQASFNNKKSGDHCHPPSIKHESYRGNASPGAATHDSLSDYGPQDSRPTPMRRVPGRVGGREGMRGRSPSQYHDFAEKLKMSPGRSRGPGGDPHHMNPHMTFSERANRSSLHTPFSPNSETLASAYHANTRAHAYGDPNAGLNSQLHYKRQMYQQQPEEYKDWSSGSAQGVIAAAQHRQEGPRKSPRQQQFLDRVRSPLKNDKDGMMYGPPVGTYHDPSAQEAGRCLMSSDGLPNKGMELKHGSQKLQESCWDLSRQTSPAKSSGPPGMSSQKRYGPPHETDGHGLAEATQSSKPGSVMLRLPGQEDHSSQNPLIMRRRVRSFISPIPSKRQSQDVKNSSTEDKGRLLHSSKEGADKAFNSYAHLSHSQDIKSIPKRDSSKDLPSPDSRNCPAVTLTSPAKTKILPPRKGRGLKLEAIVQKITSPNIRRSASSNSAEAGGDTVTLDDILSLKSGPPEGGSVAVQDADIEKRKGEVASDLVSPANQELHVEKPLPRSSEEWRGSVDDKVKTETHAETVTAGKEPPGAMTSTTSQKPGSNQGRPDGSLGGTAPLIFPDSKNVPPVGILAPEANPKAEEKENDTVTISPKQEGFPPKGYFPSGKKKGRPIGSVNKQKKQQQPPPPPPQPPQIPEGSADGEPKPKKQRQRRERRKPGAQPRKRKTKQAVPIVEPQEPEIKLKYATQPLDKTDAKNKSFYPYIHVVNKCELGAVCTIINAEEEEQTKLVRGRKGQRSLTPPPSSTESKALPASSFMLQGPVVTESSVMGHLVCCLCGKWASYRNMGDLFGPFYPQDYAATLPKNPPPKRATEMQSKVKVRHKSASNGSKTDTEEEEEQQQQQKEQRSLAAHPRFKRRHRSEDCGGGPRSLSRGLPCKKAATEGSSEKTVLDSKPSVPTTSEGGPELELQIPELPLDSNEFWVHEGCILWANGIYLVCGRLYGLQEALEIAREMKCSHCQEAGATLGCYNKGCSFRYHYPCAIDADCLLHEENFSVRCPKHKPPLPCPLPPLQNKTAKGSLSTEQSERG
# UniProt Q9H5L6: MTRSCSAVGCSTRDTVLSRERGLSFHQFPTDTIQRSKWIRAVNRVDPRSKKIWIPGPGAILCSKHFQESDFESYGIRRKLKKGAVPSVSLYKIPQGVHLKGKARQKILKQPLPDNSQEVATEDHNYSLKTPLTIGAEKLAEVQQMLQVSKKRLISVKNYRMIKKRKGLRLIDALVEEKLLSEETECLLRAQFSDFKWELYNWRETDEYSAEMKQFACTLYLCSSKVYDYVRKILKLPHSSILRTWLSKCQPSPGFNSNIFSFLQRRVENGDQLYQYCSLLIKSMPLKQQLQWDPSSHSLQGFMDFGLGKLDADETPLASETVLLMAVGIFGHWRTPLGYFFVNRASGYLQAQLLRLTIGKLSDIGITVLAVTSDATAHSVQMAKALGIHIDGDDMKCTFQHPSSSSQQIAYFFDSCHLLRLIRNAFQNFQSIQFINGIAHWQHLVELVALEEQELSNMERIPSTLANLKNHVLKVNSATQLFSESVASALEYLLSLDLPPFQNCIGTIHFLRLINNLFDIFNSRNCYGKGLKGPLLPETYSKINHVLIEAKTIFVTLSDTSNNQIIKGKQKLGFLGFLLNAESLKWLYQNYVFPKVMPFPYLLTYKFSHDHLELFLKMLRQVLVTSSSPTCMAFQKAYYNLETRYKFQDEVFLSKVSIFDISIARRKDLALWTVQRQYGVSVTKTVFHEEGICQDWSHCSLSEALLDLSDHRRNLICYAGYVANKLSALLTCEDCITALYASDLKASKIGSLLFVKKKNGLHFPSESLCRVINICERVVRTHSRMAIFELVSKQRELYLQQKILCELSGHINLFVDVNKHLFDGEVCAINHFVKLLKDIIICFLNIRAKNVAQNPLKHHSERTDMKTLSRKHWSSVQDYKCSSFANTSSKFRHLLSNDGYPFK
# UniProt Q8NHU6: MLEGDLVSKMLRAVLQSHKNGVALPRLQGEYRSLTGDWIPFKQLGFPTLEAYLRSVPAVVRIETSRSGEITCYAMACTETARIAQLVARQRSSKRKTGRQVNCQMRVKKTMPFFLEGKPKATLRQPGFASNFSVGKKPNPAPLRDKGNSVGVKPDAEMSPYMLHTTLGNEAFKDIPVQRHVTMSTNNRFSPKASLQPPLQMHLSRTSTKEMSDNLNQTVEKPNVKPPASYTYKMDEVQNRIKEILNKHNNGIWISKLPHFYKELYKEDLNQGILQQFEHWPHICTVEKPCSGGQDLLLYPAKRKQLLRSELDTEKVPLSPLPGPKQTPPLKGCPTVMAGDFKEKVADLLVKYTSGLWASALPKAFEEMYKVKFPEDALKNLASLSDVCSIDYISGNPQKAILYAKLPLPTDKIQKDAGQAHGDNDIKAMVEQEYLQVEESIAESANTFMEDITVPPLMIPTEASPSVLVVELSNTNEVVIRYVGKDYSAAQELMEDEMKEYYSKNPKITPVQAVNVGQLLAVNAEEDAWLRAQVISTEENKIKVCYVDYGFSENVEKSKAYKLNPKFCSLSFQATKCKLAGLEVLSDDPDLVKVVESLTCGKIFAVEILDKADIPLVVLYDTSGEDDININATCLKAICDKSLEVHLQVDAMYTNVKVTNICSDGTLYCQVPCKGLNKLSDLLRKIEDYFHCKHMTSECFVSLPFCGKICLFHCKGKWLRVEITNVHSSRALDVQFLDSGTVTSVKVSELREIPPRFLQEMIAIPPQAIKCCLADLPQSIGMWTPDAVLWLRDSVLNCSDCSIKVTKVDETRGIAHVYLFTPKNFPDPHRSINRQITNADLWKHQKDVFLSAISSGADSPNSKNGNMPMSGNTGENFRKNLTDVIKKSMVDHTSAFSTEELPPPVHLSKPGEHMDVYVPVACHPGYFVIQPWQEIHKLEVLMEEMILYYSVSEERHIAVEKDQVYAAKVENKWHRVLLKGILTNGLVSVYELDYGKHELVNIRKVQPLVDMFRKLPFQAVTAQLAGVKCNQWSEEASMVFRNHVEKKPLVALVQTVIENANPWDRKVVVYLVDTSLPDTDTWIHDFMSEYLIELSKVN
# The list shows a part of the results.
# Compound: c1ccc([C@@H]2C[C@H]2NC2CCNCC2)cc1
# Experiment: log2 fold change, soluble protein after heating vs DMSO (PISA); higher = thermal stabilisation; K562 cells, 10 uM, 30 min; active = over 0.2 and 3.5 SD of the protein, either way, in both replicates (recomputed)
# Procedure, shortened: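 K562 cells (2×10^6 cells/mL) were treated with 10 μM compound for 30 min, and aliquots were heated for 3 min over 48°C-58°C. Pooled aliquots were extracted in PBS with 0.5% NP-40 at 4°C, and the supernatant after 21,000xg for 90 min was measured by TMTpro 16plex LC-MS/MS with channel sums equalised. Reported thermal stability, relative to control samples and from duplicates, is a log2 fold change.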
row,Target,log2 fold change
1,TFDP2 (UniProt Q14188),inactive: 0.178
2,TENM4 (UniProt Q6N022),inactive: -0.078
3,TFAM (UniProt Q00059),inactive: 0.009
4,THAP12 (UniProt O43422),inactive: 0.152
5,TCIRG1 (UniProt Q13488),inactive: -0.167
6,TBC1D22A (UniProt Q8WUA7),inactive: 0.026
7,TDRD15 (UniProt B5MCY1),inactive: 0.079
8,TIFA (UniProt Q96CG3),inactive: 0.101
9,TDP1 (UniProt Q9NUW8),inactive: 0.054
10,TFIP11 (UniProt Q9UBB9),inactive: 0.043
11,TCF3 isoform 2 (UniProt P15923),inactive: -0.158
12,TLE3 (UniProt Q04726),inactive: 0.083
13,TCF25 (UniProt Q9BQ70),inactive: 0.011
14,TGDS (UniProt O95455),inactive: 0.109
15,THEM6 (UniProt Q8WUY1),inactive: 0.015
16,TCEAL1 isoform 2 (UniProt Q15170),inactive: 0.056
17,TFCP2 (UniProt Q12800),inactive: -0.008
18,TCF20 (UniProt Q9UGU0),inactive: 0.236
19,TBC1D20 isoform 3 (UniProt Q96BZ9),active: -0.403
20,TBL3 (UniProt Q12788),inactive: -0.046
21,THAP9 (UniProt Q9H5L6),inactive: -0.046
22,TGM2 (UniProt A2A299),inactive: -0.014
23,TDRD7 (UniProt Q8NHU6),inactive: 0.023
24,TBC1D25 (UniProt Q3MII6),inactive: -0.058
25,TCAF2 (UniProt A6NFQ2),inactive: -0.123
26,TCF4 isoform 3 (UniProt P15884),inactive: -0.242

# Copied from the list.
# Value of TDRD15 (UniProt B5MCY1) under log2 fold change: inactive: 0.079
# Value of TCAF2 (UniProt A6NFQ2) under log2 fold change: inactive: -0.123
